PubChem BioAssay AID1259308 | NCATS | 2017
The deposit covers about 59,000 reagents; below is a part drawn at random. Over the whole deposit, about 1,510 (2.6%) are marked active. 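Calls use total luciferase alone and ignore viability, so some active siRNAs may act by altering cell number.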 A number with no mark means an inactive call. The numbers tell different reagents against one gene apart.

Aim: 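Genes whose loss raises luciferase production in HEK293 cells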 (primary screen)
Cell system: human HEK293 embryonic kidney cells stably expressing firefly luciferase (HEK-CMV-Luc2-Hygro)
Reagents: single siRNA against human genes, 0.8 pmol siRNA per well
Timing: 72 h
Measurement: 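Luciferase light (ONE-Glo) measured on one replicate plate set and viability (CellTiter-Glo) on the other, scaled to a negative control siRNA, with robust z-scores and luciferase per cell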
Direction: total luciferase, z-score and total luciferase, % of control: higher = more reporter protein produced; luciferase per cell, z-score: higher = more reporter output per viable cell; viable cells, % of control: higher = more viable cells
Active means: 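An siRNA counts as active if its total luciferase robust z-score exceeds 3; genes with two or more such siRNAs out of three were retested with fresh siRNAs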
Calls: active = raised luciferase; inactive = no rise

Gene	reagent	total luciferase, z-score	total luciferase, % of control	luciferase per cell, z-score	viable cells, % of control
ZNF772	1	3.23 (active)	146	1.98	97
ZNF772	2	1.61	114	1.44	87.1
ZNF772	3	0.909	100	1.28	79.7
OR8G2P	1	-0.0019	81.8	-0.181	95.9
OR8G2P	2	0.207	86	-0.435	108
OR8G2P	3	0.893	99.6	0.156	107
QPCTL	1	0.878	99.4	-0.0934	114
QPCTL	2	-1.2	57.9	-1.42	94
QPCTL	3	-0.123	79.4	-0.532	102
SCT	1	0.688	95.6	0.309	98.4
SCT	2	-1.24	57.2	-1.38	91.9
SCT	3	2.27	127	1.91	86
LPCAT1	1	-0.419	73.5	-0.676	98.2
LPCAT1	2	0.0141	82.2	-0.534	106
LPCAT1	3	1.75	117	1.76	82
FBXW2	1	0.471	91.3	0.0177	102
FBXW2	2	-1.19	58.2	-1.62	99.7
FBXW2	3	-0.22	77.5	-0.584	101
ICAM1	1	1.21	106	0.658	99.5
ICAM1	2	-1.27	56.6	-1.07	83.8
ICAM1	3	-1.5	52.1	-2.16	103
PCDHA12	1	-1.44	53.3	-1.36	85.1
PCDHA12	2	-0.605	69.8	-1.12	105
PCDHA12	3	-1.42	53.5	-1.07	79.3
ATG16L2	1	2.26	127	0.915	111
ATG16L2	2	0.222	86.3	-0.105	99.1
ATG16L2	3	-0.857	64.8	-0.839	90.4
POU2AF2	1	0.155	85	1.61	62.2
POU2AF2	2	0.665	95.1	1.06	80.4
POU2AF2	3	-1.05	61.1	-0.274	73.4
IGF2BP2-AS1	1	-0.00897	81.7	0.471	80.7
IGF2BP2-AS1	2	1.06	103	1.04	87.5
IGF2BP2-AS1	3	-1.67	48.6	-2.22	97.4

Taken from above:
SCT #2, total luciferase, % of control = 57.2
ICAM1 #2, viable cells, % of control: 83.8
Value of ICAM1 #1 under “viable cells, % of control”: 99.5
For “total luciferase, z-score”, IGF2BP2-AS1 #3 shows -1.67
Value of PCDHA12 #2 under “viable cells, % of control”: 105
Entry of SCT #1 under “total luciferase, % of control”: 95.6

The results go on.
Gene	reagent	total luciferase, z-score	total luciferase, % of control	luciferase per cell, z-score	viable cells, % of control
SEC63	1	0.983	101	0.642	95.7
SEC63	2	-1.56	50.8	-0.829	70.6
SEC63	3	0.431	90.5	0.247	94.7
ITGA6	1	-1.67	48.7	-1.67	84.5
ITGA6	2	-1.21	57.9	-1.95	108
ITGA6	3	-1.14	59.2	-1.98	111
HCG22	1	-0.381	74.3	-0.572	96.5
HCG22	2	1.36	109	1.74	77
HCG22	3	1.16	105	1.1	87.7
LHX6	1	-0.247	77	-0.142	89.3
LHX6	2	0.441	90.7	0.119	98.2
LHX6	3	-2.52	31.7	-3.79	96.2
DNM1P49	1	0.113	84.1	-0.284	101
DNM1P49	2	-0.401	73.9	-0.0745	84.2
DNM1P49	3	-0.0167	81.6	1.44	62.4
CLDN17	1	-1.77	46.8	-0.326	57
CLDN17	2	2.19	125	2.09	80.8
CLDN17	3	0.363	89.1	-0.173	104
SRSF7	1	1.35	109	0.671	102
SRSF7	2	1.65	115	1.04	97.3
SRSF7	3	2.2	126	0.469	124
UGT1A1	1	-0.669	68.6	-0.668	91.4
UGT1A1	2	-0.184	78.2	0.388	78.9
UGT1A1	3	1.24	107	1.04	90.6
ARSG	1	0.426	90.4	0.707	83.8
ARSG	2	-1.1	60	0.517	58.5
ARSG	3	0.0615	83.1	0.467	82.1
NR2C1	1	-0.394	74.1	-0.469	93.6
NR2C1	2	-0.389	74.1	-0.589	96.8
NR2C1	3	-1	62	-0.55	80.1
SPACA5B	1	-0.763	66.7	-0.5	85
SPACA5B	2	0.88	99.4	0.73	91.6
SPACA5B	3	0.33	88.5	0.4	89
MSH6	1	0.296	87.8	-0.095	101
MSH6	2	0.169	85.2	0.382	86.1
MSH6	3	1.01	102	1.98	67.7
FZD8	1	0.331	88.5	0.39	89.2
FZD8	2	-0.0191	81.5	0.396	82.1
FZD8	3	-2.03	41.5	-2.73	95.2
ZNF599	1	0.495	91.7	0.34	93.7
ZNF599	2	0.65	94.8	0.305	97.8
ZNF599	3	-0.96	62.8	-1.14	94.7
